These results are taken from the supplement of paper PMC10849652.

Protein sequences, listed by entry. Tags and fused reporters are not part of them. Lines headed by an entry give the natural chain unless they say otherwise; changes in a name come on top.
UniProt O43716: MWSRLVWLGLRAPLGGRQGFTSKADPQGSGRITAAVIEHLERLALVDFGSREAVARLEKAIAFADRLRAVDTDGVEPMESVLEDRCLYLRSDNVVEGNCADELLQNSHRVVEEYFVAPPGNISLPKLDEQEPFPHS
UniProt Q17RS7: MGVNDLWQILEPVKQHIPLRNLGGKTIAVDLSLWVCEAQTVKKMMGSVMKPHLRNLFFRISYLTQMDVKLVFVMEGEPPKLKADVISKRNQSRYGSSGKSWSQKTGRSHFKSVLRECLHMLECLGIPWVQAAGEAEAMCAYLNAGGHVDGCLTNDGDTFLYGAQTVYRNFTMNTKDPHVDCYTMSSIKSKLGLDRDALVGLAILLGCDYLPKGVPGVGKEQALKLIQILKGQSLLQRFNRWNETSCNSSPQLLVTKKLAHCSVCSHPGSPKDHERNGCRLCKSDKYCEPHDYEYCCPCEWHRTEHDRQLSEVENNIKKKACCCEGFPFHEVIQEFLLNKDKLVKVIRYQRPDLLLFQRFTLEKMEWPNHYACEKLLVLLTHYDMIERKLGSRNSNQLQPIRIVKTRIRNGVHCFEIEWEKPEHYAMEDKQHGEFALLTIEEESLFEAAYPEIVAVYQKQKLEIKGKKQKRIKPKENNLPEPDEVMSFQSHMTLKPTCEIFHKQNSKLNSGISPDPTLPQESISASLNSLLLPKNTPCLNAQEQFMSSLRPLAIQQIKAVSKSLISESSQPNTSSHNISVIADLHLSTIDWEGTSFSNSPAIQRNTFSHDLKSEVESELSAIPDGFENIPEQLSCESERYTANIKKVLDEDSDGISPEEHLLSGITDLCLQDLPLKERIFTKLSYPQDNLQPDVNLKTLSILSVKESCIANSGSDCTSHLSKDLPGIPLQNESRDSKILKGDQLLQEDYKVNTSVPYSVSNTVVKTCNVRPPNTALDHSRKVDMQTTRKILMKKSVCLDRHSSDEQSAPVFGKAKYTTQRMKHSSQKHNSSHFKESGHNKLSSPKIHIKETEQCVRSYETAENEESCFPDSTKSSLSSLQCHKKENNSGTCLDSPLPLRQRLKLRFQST
UniProt Q8IVP5: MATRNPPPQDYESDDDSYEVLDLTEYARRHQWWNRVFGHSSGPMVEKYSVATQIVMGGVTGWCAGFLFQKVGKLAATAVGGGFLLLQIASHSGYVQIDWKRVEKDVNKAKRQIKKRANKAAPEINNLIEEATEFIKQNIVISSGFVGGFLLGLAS
UniProt Q5VTD9: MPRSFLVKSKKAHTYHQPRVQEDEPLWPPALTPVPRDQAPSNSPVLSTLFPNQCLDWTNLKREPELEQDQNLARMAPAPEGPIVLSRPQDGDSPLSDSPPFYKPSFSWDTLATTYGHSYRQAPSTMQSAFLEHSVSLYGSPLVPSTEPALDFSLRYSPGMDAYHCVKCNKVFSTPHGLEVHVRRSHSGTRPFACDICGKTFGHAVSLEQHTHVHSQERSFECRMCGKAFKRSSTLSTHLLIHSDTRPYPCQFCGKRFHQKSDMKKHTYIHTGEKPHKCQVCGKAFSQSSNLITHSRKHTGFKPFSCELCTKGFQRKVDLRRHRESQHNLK
UniProt O75879: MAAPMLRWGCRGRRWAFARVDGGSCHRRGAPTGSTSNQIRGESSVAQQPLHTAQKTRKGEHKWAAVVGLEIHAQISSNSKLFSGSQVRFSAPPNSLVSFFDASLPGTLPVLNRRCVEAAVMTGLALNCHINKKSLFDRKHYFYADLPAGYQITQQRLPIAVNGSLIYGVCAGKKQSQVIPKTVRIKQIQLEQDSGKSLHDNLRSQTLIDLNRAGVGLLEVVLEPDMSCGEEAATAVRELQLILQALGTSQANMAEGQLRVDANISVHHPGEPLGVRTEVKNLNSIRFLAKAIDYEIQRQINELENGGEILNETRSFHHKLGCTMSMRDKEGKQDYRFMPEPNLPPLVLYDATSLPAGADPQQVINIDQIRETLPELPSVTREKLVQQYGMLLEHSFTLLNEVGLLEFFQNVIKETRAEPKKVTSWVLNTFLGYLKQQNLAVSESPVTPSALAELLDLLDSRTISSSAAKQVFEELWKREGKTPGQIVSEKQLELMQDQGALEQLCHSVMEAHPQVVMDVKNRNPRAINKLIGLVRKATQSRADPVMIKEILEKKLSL
UniProt Q8IWF2: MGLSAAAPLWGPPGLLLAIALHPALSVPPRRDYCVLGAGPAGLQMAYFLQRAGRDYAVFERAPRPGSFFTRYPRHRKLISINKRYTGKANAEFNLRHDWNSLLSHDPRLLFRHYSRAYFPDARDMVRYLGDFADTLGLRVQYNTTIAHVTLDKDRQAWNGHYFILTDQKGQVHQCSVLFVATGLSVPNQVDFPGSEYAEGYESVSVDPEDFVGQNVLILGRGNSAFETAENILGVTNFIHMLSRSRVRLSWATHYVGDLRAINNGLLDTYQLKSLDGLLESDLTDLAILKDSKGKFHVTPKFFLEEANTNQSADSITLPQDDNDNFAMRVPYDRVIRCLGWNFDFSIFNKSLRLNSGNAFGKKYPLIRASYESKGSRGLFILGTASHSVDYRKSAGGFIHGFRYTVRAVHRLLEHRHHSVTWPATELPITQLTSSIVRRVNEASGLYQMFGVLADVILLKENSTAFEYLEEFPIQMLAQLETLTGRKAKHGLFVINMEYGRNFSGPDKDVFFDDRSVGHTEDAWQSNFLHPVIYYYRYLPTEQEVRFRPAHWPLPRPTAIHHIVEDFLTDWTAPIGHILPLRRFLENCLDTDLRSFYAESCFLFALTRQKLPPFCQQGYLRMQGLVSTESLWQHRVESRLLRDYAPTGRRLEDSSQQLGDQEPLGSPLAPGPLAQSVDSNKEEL
UniProt A2VDF0: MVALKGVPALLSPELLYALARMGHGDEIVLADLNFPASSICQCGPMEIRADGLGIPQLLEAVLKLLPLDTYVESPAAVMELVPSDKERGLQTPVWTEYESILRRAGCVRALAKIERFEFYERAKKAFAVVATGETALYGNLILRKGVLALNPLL
UniProt O94915: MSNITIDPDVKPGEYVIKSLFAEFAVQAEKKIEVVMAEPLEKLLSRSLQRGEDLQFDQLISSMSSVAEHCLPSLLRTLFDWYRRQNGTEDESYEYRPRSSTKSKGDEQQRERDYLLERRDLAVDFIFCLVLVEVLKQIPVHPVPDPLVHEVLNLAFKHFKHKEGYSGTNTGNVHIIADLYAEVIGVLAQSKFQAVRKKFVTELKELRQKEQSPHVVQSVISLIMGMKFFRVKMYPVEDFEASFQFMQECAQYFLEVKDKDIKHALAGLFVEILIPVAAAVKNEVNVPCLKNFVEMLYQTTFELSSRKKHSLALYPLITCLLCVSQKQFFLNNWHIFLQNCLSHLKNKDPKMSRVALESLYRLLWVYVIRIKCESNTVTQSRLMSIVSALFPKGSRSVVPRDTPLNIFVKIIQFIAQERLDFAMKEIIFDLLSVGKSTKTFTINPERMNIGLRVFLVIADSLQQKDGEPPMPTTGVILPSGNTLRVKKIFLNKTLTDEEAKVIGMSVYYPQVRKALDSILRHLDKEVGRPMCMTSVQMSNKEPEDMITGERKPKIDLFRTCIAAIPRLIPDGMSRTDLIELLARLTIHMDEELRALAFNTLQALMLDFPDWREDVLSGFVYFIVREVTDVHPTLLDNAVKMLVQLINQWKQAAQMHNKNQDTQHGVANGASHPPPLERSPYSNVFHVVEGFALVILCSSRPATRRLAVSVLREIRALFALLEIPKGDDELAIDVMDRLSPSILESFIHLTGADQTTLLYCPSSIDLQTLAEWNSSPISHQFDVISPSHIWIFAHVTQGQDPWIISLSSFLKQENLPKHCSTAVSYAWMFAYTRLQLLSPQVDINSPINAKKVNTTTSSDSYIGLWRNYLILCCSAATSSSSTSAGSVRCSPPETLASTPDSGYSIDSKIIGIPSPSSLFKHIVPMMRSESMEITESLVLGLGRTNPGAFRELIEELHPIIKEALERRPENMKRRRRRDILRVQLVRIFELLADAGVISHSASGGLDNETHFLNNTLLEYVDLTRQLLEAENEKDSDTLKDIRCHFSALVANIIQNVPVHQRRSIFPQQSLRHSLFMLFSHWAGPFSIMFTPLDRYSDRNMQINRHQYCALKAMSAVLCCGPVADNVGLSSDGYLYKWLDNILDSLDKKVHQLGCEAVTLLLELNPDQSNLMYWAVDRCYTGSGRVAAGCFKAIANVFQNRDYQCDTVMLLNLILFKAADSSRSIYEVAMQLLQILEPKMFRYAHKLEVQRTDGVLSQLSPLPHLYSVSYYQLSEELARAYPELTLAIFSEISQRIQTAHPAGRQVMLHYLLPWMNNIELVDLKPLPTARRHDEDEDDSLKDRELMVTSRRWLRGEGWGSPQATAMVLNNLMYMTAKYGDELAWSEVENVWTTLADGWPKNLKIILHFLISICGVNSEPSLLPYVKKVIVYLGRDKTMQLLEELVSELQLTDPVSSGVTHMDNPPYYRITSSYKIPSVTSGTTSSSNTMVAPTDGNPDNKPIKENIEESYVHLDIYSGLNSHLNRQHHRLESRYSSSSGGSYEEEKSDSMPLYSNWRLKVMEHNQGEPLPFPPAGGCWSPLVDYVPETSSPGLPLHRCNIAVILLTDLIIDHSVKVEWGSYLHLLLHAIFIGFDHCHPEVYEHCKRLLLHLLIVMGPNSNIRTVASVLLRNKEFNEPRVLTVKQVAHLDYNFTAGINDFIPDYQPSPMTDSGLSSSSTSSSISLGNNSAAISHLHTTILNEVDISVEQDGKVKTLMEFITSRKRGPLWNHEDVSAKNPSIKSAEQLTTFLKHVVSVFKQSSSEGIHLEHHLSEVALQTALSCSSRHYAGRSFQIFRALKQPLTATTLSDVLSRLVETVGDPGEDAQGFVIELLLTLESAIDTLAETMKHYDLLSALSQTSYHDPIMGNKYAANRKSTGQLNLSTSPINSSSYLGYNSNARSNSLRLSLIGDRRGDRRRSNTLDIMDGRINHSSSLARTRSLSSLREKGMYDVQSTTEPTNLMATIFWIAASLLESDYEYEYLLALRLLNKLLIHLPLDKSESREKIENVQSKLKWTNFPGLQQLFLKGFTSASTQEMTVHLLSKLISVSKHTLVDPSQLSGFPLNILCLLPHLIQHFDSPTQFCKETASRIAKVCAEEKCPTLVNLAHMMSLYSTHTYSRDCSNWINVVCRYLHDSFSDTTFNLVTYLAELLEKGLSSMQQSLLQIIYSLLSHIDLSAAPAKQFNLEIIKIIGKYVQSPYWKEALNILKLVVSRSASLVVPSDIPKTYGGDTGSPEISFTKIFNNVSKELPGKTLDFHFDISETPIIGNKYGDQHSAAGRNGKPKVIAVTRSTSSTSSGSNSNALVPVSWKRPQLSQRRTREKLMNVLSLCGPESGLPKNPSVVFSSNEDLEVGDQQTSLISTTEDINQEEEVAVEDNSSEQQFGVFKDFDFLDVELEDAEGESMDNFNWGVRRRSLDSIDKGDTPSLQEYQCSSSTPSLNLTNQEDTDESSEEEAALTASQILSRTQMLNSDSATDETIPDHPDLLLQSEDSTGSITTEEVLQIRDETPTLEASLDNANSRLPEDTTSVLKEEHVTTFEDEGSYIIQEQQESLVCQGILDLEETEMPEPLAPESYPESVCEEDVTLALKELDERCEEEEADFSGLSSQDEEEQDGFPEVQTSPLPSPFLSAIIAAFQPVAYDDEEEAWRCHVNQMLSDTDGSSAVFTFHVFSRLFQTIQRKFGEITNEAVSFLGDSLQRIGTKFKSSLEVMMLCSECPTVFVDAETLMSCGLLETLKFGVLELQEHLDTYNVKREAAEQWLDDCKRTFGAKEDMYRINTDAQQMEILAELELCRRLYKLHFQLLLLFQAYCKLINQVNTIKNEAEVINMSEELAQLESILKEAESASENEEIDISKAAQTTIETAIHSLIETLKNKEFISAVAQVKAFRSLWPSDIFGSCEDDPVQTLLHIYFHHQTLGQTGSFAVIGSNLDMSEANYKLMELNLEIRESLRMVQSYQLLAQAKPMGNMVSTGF
UniProt Q8NCW6: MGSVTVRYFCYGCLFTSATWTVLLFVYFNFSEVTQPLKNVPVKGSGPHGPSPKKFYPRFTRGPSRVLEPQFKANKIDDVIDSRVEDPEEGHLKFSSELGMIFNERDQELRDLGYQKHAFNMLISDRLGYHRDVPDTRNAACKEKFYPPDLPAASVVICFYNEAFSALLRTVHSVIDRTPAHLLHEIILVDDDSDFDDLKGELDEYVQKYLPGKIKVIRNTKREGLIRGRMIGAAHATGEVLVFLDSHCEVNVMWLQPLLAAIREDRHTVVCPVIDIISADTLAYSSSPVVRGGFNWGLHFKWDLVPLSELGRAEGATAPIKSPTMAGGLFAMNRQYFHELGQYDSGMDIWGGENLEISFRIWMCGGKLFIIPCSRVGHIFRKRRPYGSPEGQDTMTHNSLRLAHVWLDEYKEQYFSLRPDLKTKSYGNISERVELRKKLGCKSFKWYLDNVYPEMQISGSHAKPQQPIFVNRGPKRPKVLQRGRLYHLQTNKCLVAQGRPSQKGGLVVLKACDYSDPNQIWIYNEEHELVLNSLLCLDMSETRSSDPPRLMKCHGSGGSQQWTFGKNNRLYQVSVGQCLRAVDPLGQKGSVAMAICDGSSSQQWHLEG

Holding throughout (test): log2 fold change, soluble protein after heating vs DMSO (PISA); higher = thermal stabilisation; K562 lysate, 10 uM; active = over 0.2 and 3.5 SD of the protein, either way, in both replicates (recomputed)
Compound in test [1]: Cc1sc2c(c1C)C(c1ccc(Cl)cc1)=N[C@@H](CC(=O)OC(C)(C)C)c1nnc(C)n1-2
In short, it runs like this: (§1)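 Quantification was by TMTpro 16plex LC-MS/MS with equalised channel sums, applied to the supernatant after 21,000xg for 90 min. Samples were crude K562 extract at 1 mg/mL protein in PBS pH 7.4 with 1 mM MgCl2, treated with 10 μM compound for 30 min, heated for 3 min across 48°C-58°C, pooled and brought to 0.5% NP-40 at 4°C. Values are log-two fold changes in thermal stability relative to solvent controls, from duplicates.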

Compound in test [2]: CC1=C2C(=CC=C1)N=C(N(C2=O)C3=CC=CC=C3C)CN4C=NC5=C(N=CN=C54)N
Put shortly:
as §1

Compound in test [3]: c1ccc([C@@H]2C[C@H]2NC2CCNCC2)cc1
Put shortly:
as §1

This is one part of the list.

Consider GANC (UniProt Q8TET4), for which the log2 fold change in test [1] was inactive: 0.109.

For the target GATC (UniProt O43716), the log2 fold change is inactive: -0.004 in test [2], inactive: 0.024 in test [1] and inactive: 0.112 in test [3].

Regarding GBP2 (UniProt P32456), the log2 fold change in test [1] is inactive: -0.102; in test [3] it was inactive: -0.103.

For the target GEN1 (UniProt Q17RS7), the log2 fold change in test [2] was inactive: 0.037; in test [1], inactive: 0.06.

Turning to FUNDC1 (UniProt Q8IVP5), the figures for the log2 fold change in test [2], in test [1] and in test [3] were inactive: 0.046, inactive: -0.133 and inactive: -0.408, respectively.

On to GFI1B (UniProt Q5VTD9), for which, in test [1], the log2 fold change is inactive: -0.167.

As for FUS (UniProt H3BPE7), the log2 fold change in test [1] is inactive: 0.3.

For the target GATB (UniProt O75879), the log2 fold change in test [2] is inactive: 0.085; in test [1] it was inactive: 0.303; in test [3], inactive: -0.033.

As to FOXRED2 (UniProt Q8IWF2), the log2 fold change is inactive: -0.08 in test [2] and inactive: 0.019 in test [1].

FUOM (UniProt A2VDF0): the results for the log2 fold change in test [2], in test [1] and in test [3] were inactive: -0.097, inactive: 0.027 and inactive: -0.071, respectively.

Take FRYL isoform 2 (UniProt O94915): the log2 fold change in test [3] was inactive: 0.071.

On to GALNT11 (UniProt Q8NCW6), for which the log2 fold change is inactive: 0.248 in test [2], inactive: 0.085 in test [1] and inactive: -0.112 in test [3].

Consider FSIP2 (UniProt Q5CZC0), for which the log2 fold change in test [1] is inactive: -0.16; in test [3], inactive: -0.224.
